Measurements published in patent publication US11124779B2, “Compositions and methods for treating and preventing pancreatitis, renal injury and cancer” (Yale University, priority 2014, dated 2021).
Not every detail of the peptide structures is certain; ends, links or a residue may be inferred. Where a SMILES comes first, the peptide text is derived from it.

Experiments:
[1] = tested on: renalase KO mice; conditions: Wang et al., 2014; cited from earlier work
[2] = tested on: mice; conditions: literature (Lee et al., 2013; Wang et al., 2014); cited from earlier work
[3] = tested on: HK-2 cells; experiment: In vitro model of cisplatin toxicity: HK-2 cell survival by the WST-1 method; type: cell-based, human; conditions: 20 μM cisplatin, 24 hrs
Procedure: FIG. 1B is a graph depicting the effect of renalase peptides on survival of HK-2 cells exposed to 20 μM cisplatin for 24 hrs; cell survival is depicted as % change in survival compared to that in cisplatin-treated HK-2 cells without renalase peptides; cell survival was measured by the WST-1 method; RP-A220: mutated RP-220, and RP-19 and RP-128: control peptides; peptide concentration (μg/ml) indicated in top line; n=4, *=p<0.05. […]
HK-2 cells (human proximal tubular line) obtained from ATTC (Manassas, Va., USA) were cultured in DMEM/F12 supplemented with glutamine, 10% FBS and antibiotics, and were maintained at 37° C. in 5% CO2. Cells were exposed to cisplatin (20 μM) in the presence or absence of recombinant renalase or renalase peptides for 24 hrs, and cell viability was assessed by the WST1 method (Roche Applied Science, Germany).

[4] = tested on: p38 MAPK; experiment: MAPK signaling by immunoblot: p38 phosphorylation in HK-2 cells; type: cell-based, human; conditions: HK-2 cells exposed to cisplatin with RP-220, early time points (1-60 min)
From the text: (§1) FIGS. 2A-2C, depict how RP-220 alters the pattern of MAPK activation in cisplatin treated cells. FIG. 2A is an image of a gel depicting MAPK phosphorylation with cisplatin alone (CP) and with CP and RP-220; representative study: p-p38: phosphorylated p38 MAPK; p-ERK: phosphorylated ERK. FIG. 2B is a graph depicting quantification of ERK activation. Signals were normalized to glyceraldehyde 3-phosphate dehydrogenase (GAPDH) loading control; n=3, *=P<0.05. FIG. 2C is a graph depicting quantification of p38 activation, signals normalized to GAPDH loading control; n=3, *=P<0.05.
(§2) FIGS. 5A-5E, depict how PMCA4b inhibition abrogates renalase peptide mediated MAPK signaling and cytoprotection. […] is a series of panels depicting how PMCA4b inhibition abrogates RP-220 mediated ERK and p38 signaling in HK-2 cells; caloxin1b=peptide inhibitor of PMCA4; left panel: RP-220 mediated ERK and p38 activation, phospho=phosphorylated, representative blot; middle panel: inhibition of RP-220 mediated ERK and p38 activation by caloxin1b (100 μM); right panel: quantification of phosphorylated p38 (P-p38) and phosphorylated ERK (p-ERK); signals were normalized to glyceraldehyde 3-phosphate dehydrogenase (GAPDH) loading control; n=3, *=P<0.05. […]

[5] = tested on: ERK; conditions: HK-2 cell, treatment alone; Wang et al., 2014; cited from earlier work
[6] = tested on: WT mice; experiment: Cerulein-induced pancreatitis in vivo; set-up: species or system mouse; conditions: 7 hours after inducing disease
Procedure: FIGS. 10A-10G, depict the results of experiments showing that pretreatment with renalase peptide (RP-220) ameliorates cerulein-induced pancreatitis in vivo. WT mice were treated with 6 hourly IP injections of cerulein (CER, 40 mcg/kg). IP renalase peptide, RP-220 (renalase, 1.3 mg/kg) was given 1 hour before first cerulein injection. (FIG. 10A) Pancreatic trypsin activation measured with fluorogenic substrate, normalized to total protein. (FIG. 10B) Edema measured as % wet weight. (FIG. 10C) Apoptosis evaluated by TUNEL positive cells. (FIG. 10D) Neutrophils (Ly-6B) and (FIG. 10E) macrophages (F4/80) were quantified. Pancreas H&E sections (FIG. 10G) were evaluated for edema, pyknotic nucei, and vacuoles to derive morphological score (FIG. 10F). *p<0.05 vs. WT-CER, +/−SEM, n=5.
A single dose of renalase was given intraperitoneally (100 μg peptide/25 g body weight) 2 hours after inducing cerulein-pancreatitis. Six hourly injections IP of 50 μg/kg and animals were sacrificed at hour 7. Histologic pancreatitis severity was evaluated by two blinded reviewers. […] N=4 mice in each group.
To determine whether the protective of renalase observed in isolated acini was relevant in vivo, WT mice were pretreated (1 hour) with a single dose of the renalase peptide (RP-220) intraperitoneally (100 μg peptide/25 g body weight) prior to inducing cerulein-pancreatitis (6 hourly injections IP of 50 μg/kg). This prophylactic pretreatment reduced all measures of pancreatitis severity including, zymogen activation, edema, apoptosis, inflammatory cell infiltrate, and histologic severity 7 hours after inducing disease (FIG. 10). Next, we examined whether giving renalase after disease onset could reduce disease severity.
The same protocol was used as in the experiments in FIG. 10 to induce cerulein pancreatitis in WT mice, but renalase was not given until 2 hours after initiating disease (FIG. 11). […] The data shown in FIG. 10 and FIG. 11 indicate that exogenous renalase can reduce the severity of pancreatitis in both a prophylactic and therapeutic context.

[7] = tested on: ERK; experiment: MAPK signaling by immunoblot: ERK phosphorylation in HK-2 cells; type: cell-based, human; conditions: HK-2 cells exposed to cisplatin with RP-220, early time points (1-60 min)
From the text: as §1, §2

[8] = tested on: p38 MAPK; conditions: HK-2 cell, treatment alone; Wang et al., 2014; cited from earlier work
[9] = compared with recombinant renalase; cited from earlier work
[10] = single IP dose 1 hour before cerulein

CC[C@H](C)[C@H](NC(=O)[C@H](CCC(=O)O)NC(=O)[C@H](CO)NC(=O)[C@H](CO)NC(=O)[C@H](CCC(=O)O)NC(=O)[C@@H](NC(=O)[C@H](CC(N)=O)NC(=O)[C@H](CCCNC(=N)N)NC(=O)[C@H](CCCCN)NC(=O)[C@H](CCCCN)NC(=O)[C@H](CC(N)=O)NC(=O)[C@H](CC(=O)O)NC(=O)[C@@H](NC(=O)[C@H](CO)NC(=O)[C@@H](NC(=O)[C@H](Cc1ccccc1)NC(=O)[C@H](CCCNC(=N)N)NC(=O)[C@@H](NC(=O)[C@H](CS)NC(C)=O)[C@@H](C)CC)C(C)C)[C@@H](C)CC)[C@@H](C)CC)C(=O)NCC(=O)O [RP-220] (Ac-CIRFVSIDNKKRNIESSEIG-OH)
activating MAPK signaling in renalase KO mice [1]: neither renalase nor RP-220 is effective | protecting renalase KO mice against mild or severe ischemic AKI [1]: neither renalase nor RP-220 is effective | ischemic acute kidney injury (AKI) [2]: dramatically decreases | survival of HK-2 cells exposed to cisplatin (protective effect) ([3]; WST-1, range of peptide concentrations): significantly protected | survival of HK-2 cells exposed to cisplatin (protective effect) ([3]; test substance 15 μg/ml): protected HK-2 cells to a similar degree | enhancement of p38 phosphorylation over cisplatin alone [4]: 5 fold | ERK phosphorylation [5]: rapidly increased | zymogen activation (pancreatic trypsin) ([6]; single IP dose 1 hour before cerulein (6 hourly IP injections)): reduced | apoptosis [6, 10]: reduced | edema [6, 10]: reduced | histologic severity [6, 10]: reduced | inflammatory cell infiltrate [6, 10]: reduced | increase in ERK activation over that elicited by cisplatin alone [7]: 0.5 fold | p38 phosphorylation [8]: rapidly increased | amine oxidase activity [9]: lacks the amine oxidase activity
